We go through 39 sequences from the supplement of paper PMC10338343.

± gives the standard deviation. This is a selection; strong and weak results do not stand in their true shares. The uncertainty is large for many entries. Some results are limits rather than exact numbers.
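Note: 1 nM active piRISC with 0.1 nM target library at 33 °C single turnover.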

For this test, the system named is MIWI (PIWIL1) piRISC loaded with Kctd7 piRNA (30 nt). Kind of test: pre-steady-state target cleavage rate (min^-1); MIWI and MILI are mouse PIWI proteins and EfPiwi is from a freshwater sponge; tags in brackets are library labels; higher = faster piRNA-guided slicing of the target. Particulars: guide: Kctd7 piRNA 5'p-UGUUAAUCUCUCAGAGAAGGUGACAGUGAU; auxiliary factor: 500 nM mouse GTSF1. In outline:
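A burst-and-steady-state fit was used to obtain the pre-steady-state cleavage rate. The input data were sequencing reads of uncleaved targets, normalised to depth and to weakly complementary targets, from a […] transcribed, DNA-blocked target RNA library mixed with 1 nM active affinity-purified piRISC holding one synthetic guide, with or without 500 nM GTSF1 partner protein, in HEPES–potassium acetate buffer at 33 °C for 0–8 or 0–960 min. Three trials were pooled and k3 was capped at 0.0001 min^-1.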
In the case of UAGUGACAGUCCUAGACUGAGAGAUUAACA, the “pre-steady-state target cleavage rate” value was found to be 0.000202 ± 0.024.

UAGUGACAGACCUUCUCUGACUCAUUUUGA: the “pre-steady-state target cleavage rate” value was found to be 0.000205 ± 0.021.

Consider UAGUGACAGUGCUUCUCUGAGACAUUAUCA, for which the “pre-steady-state target cleavage rate” value was determined as 0.000121 ± 0.018.

UAGACUGUCACCUUCUCUGUCUGAUUAACA: the “pre-steady-state target cleavage rate” value turned out to be 0.000564 ± 0.0071.

In the case of UAGUGACACACCUUCUCUGACUCAUUUUGA, the “pre-steady-state target cleavage rate” value amounted to 0.00106 ± 0.006.

Regarding UAGUCUGUCACCUUCUCUGAGAGAAAUACA, the “pre-steady-state target cleavage rate” value was 0.0823 ± 0.015.

Turning to UAGUGACAGACCUUCACUGAGAGAAUAACA, the “pre-steady-state target cleavage rate” value was determined as 0.00382 ± 0.0042.

As to UAGUGACAGUCCUUCUCUCACAGAUUAACA, the “pre-steady-state target cleavage rate” value is 0.000592 ± 0.015.

With UAGUGACAGACCUUCUCUCAGACAUUAACA, the “pre-steady-state target cleavage rate” value was 0.00309 ± 0.0032.

Consider AUCACGUGUCACCUUCUCUGAGAGAUUAACA, for which the “pre-steady-state target cleavage rate” value stood at 0.63 ± 0.03.

On to UUCACUGUCACCUUCUCUGAGCGAUUAACA, for which the “pre-steady-state target cleavage rate” value is 0.13 ± 0.0091.

Consider UAGUGACAGUCCAUCUCUGAGAGAUUUACA, for which the “pre-steady-state target cleavage rate” value is 0.00224 ± 0.0037.

On to UAGUGACAGACCUUCACUCAGAGAUUAACA, for which the “pre-steady-state target cleavage rate” value turned out to be 0.00134 ± 0.0087.

As for UAGUGACAGUGCUUCUCUCAGAGAUUAACA, the “pre-steady-state target cleavage rate” value amounted to 0.00163 ± 0.0051.

For “UAGACUGUCACCUUCUCUCUCUCUAAUUGA [g13:g27:cont:t1A]”, the “pre-steady-state target cleavage rate” value was below 0.0001.

On to UUCACUGUCACCUAGUCUGAGAGAUUUUGA, for which the “pre-steady-state target cleavage rate” value came to 0.111 ± 0.03.

As to UAGUGACAGUCCUUCUCAGAGUGAUUAACA, the “pre-steady-state target cleavage rate” value came to 0.00217 ± 0.005.

As to UACUCUGUCACCUUCUGUGAGAGAUUAACA, the “pre-steady-state target cleavage rate” value is 0.533 ± 0.025.

Turning to UAGUGACAGAGGAUCUCUGAGAGAUUAACA, the “pre-steady-state target cleavage rate” value turned out to be 0.000165 ± 0.017.

Take UAGUGACAGACCUUCUCUGAGUCAUUUUGA: the “pre-steady-state target cleavage rate” value was 0.000643 ± 0.012.

On to UAGUGACACACCUUCUCACAGAGAUAUUGA, for which the “pre-steady-state target cleavage rate” value came out at 0.000794 ± 0.011.

For the sequence AUUCACUGUCACCUUCUCUGAGAGAUUAACA, the “pre-steady-state target cleavage rate” value amounted to 0.737 ± 0.036.

In the case of UAGUGACAGACCUAGUCUGAGAGAUUAACA, the “pre-steady-state target cleavage rate” value worked out at 0.00247 ± 0.0044.

For the sequence UAGUGACUCACCUUCUCUGUCUGAUUUUGA, the “pre-steady-state target cleavage rate” value came to 0.000149 ± 0.052.

Take UAGUGACUCACGUUCUCUGACAGAUUAACA: the “pre-steady-state target cleavage rate” value amounted to 0.00367 ± 0.0032.

Consider UAGUGUGUCUGGUUCUCUGAGAGAUUAAGA, for which the “pre-steady-state target cleavage rate” value came to 0.00251 ± 0.0027.

On to “UAGUGAGUCACCUUCUCUGACUCUAAUUGA [g11:g24:cont:t1A]”, for which the “pre-steady-state target cleavage rate” value is 0.0013 ± 0.0086.

Regarding UAGUGACAGUGCUUCUCUGAGACAUUAACA, the “pre-steady-state target cleavage rate” value came out at 0.00283 ± 0.0031.

As for UAGUGACAGUCCUUCUCUGUGUGAUUAACA, the “pre-steady-state target cleavage rate” value amounted to 0.00154 ± 0.0039.

As for UAGUGACACACGAUCUCUGAGAGAUUUUGA, the “pre-steady-state target cleavage rate” value amounted to 0.000246 ± 0.025.

As for UAGUCUCACACCUUCUCUGAGAGAUUAUGA, the “pre-steady-state target cleavage rate” value came to 0.0207 ± 0.0066.

As for UAGUGACUCACCUUCUCUCAGAGAUUAUGA, the “pre-steady-state target cleavage rate” value amounted to 0.00158 ± 0.0092.

As for UAGUGACAGUGGAAGUCUGGAGAUUAACA, the “pre-steady-state target cleavage rate” value was found to be 0.000778 ± 0.0037.

Consider UUGUGUGUCACCUUCUCUGAGAGAUUAACA, for which the “pre-steady-state target cleavage rate” value was 0.571 ± 0.025.

Consider UUCUCUGUCACCUUCUCUGAGAGAUUAACA, for which the “pre-steady-state target cleavage rate” value was 0.585 ± 0.031.

As to UAGUGACAGUGCUUCUCUGAGAGAUAUACA, the “pre-steady-state target cleavage rate” value was 0.0019 ± 0.0032.

For the sequence UACACAGUCACCAUCUCUGAGAGAUUAACA, the “pre-steady-state target cleavage rate” value is 0.833 ± 0.045.

Consider AUCACUGUCACCUGUCUCUGAGAGAUUAACA, for which the “pre-steady-state target cleavage rate” value amounted to 0.651 ± 0.038.

Turning to UAGUGACAGACCAUCUCUGACAGAUUAACA, the “pre-steady-state target cleavage rate” value amounted to 0.00263 ± 0.0043.
